# Assay results: PubChem BioAssay AID540256 (National Center for Advancing Translational Sciences (NCATS), 2011)
# Screen size: about 300,000 compounds; about 3,700 (1.2%) were called active. The shares of active, inactive and inconclusive entries below differ from those in the screen. The call rests on the fitted dose curve; tested in HEK293 cells. Potencies beside an inconclusive call are fits to weak or partial responses and may not hold up.
# Assay: qHTS for Inhibitors of binding or entry into cells for Lassa Virus; further: nearly all actives have a fitted effect of over 50% in size
# Conditions: Lassa virus pseudotype entry inhibition, cell reporter; activity change, negative = inhibition: at 37.9 µM (top of the series) unless noted
# On the % scale 0 is the no-effect control and ±100 the full control effect; potency means the concentration at half of the fitted maximal effect.
SMILES,Potency,"activity change, negative = inhibition"
Cc1ccccc1N(CC(=O)N/N=C/c1ccc(Cl)cc1)C(=O)c1ccccc1,"inconclusive: 16.4 µM [inhibitor, single point]",
CC(C(=O)Nc1ccc([N+](=O)[O-])cc1)N1CCN(C/C=C/c2ccccc2)CC1 (configuration not stated),,inactive: 7.6%
COc1ccccc1N1Cc2ccc(OC)c(OC)c2C1=O,,inactive: 14.1% [at 46.1 µM]
COc1ccc(NC(=O)CC2C(=O)N(c3ccc(F)cc3)C(=O)N2CCc2sccc2C)cc1 (configuration not stated),"inconclusive: 22.4 µM [inhibitor, partial curve, poor fit]",
Cc1cc(C)cc(C(=O)n2cnnc2N)c1,"inconclusive: 7.08 µM [activator, full curve, poor fit]",
Cc1ccc(-c2nc3sc(C(N)=O)c(N)c3c3c2CCCC3)cc1,"inconclusive: 11.2 µM [inhibitor, single point]",
CCCCOc1ccc(CCC(=O)N/N=C/c2ccco2)cc1,"inconclusive: 22.4 µM [inhibitor, single point]",
O=C(Cc1n[nH]c(=O)c2ccccc12)OCc1c(Cl)cccc1Cl,active: 0.631 µM,
Nc1ccc2nc(-c3ccc(O)cc3)sc2c1,"inconclusive: 11.2 µM [inhibitor, partial curve, poor fit]",
O=Cc1ccc(OCC(=O)Nc2ccccc2C(F)(F)F)cc1,"inconclusive: 14.1 µM [activator, single point]",
COc1ccccc1OCCN(C#N)c1nc(N(C)C)nc(N(C)C)n1,"inconclusive: 17.8 µM [inhibitor, single point]",
COCCCNC(=O)c1cnn(-c2ccc(F)cc2F)c1C1CCNCC1,"inconclusive: 35.5 µM [activator, partial curve, poor fit]",
O=C(O)c1ccc(-c2nc(-c3ccccc3Cl)cs2)cc1,"inconclusive: 25.1 µM [activator, partial curve, poor fit]",
O=C(Nc1ccccc1)Nc1ccncc1,"inconclusive: 35.5 µM [activator, single point]",
CCCCN1CC(O)=C(c2nc3ccccc3s2)C1=N,,inactive: -2.86%
CCc1ccc(C(=O)COC(=O)c2cccc(N3C(=O)c4c(C)nc5ccccc5c4C3=O)c2)cc1,"inconclusive: 9.2 µM [inhibitor, partial curve, poor fit]",
COc1cc(OC)cc(-c2nc(-c3cccs3)no2)c1,"inconclusive: 3.55 µM [activator, single point]",
CC(=O)NCCC(=O)Nc1nc(-c2c[nH]c3ccccc23)cs1,"inconclusive: 6.31 µM [inhibitor, single point]",
CCCSc1nc2cc(OC)c(OC)cc2c(=N)n1CCCN1CCOCC1,"inconclusive: 22.4 µM [inhibitor, single point]",
Cc1ccc(CN2CCCn3nc(C(=O)NCc4cc(C)ccc4C)cc3C2=O)cc1,"inconclusive: 22.4 µM [inhibitor, single point]",
COCCn1c(C)cc(C2=NNC(=Nc3ccc(OC)cc3)SC2)c1C,,inactive: -19.9%

SMILES,Potency,"activity change, negative = inhibition"
CC1CC(C)CN(CCC(=O)Nc2ccc3c(c2)CCC3)C1 (configuration not stated),"inconclusive: 7.3 µM [inhibitor, partial curve, poor fit]",
CC(=O)N1CCN(S(=O)(=O)c2cccc(C(=O)Nc3ccc(F)c(F)c3)c2)CC1,"inconclusive: 3.55 µM [inhibitor, partial curve, poor fit]",
CO[C@H]1C=CO[C@@]2(C)Oc3c(C)c(O)c4c(O)c(c(C=NN5CCN(C)CC5)c(O)c4c3C2=O)NC(=O)C(C)=CC=C[C@H](C)[C@H](O)[C@@H](C)[C@@H](O)[C@@H](C)[C@H](OC(C)=O)[C@@H]1C,,inactive: -19.4%
O=C(Cc1c[nH]c2ccccc12)Nc1nc2ccccc2[nH]1,,inactive: 16.9%
CC(=O)c1c(C)[nH]c(C(=O)NCCc2cccc(C)c2)c1C,,inactive: -24.7%
Cc1ccc(N2CCN(C(=O)c3c(C)oc4ncnc(N5CCOCC5)c34)CC2)c(C)c1,,inactive: -0.0556% [at 46.1 µM]
CN1/C(=C\C(=O)C[n+]2ccc3ccccc3c2)C(C)(C)c2ccccc21,"inconclusive: 11.2 µM [inhibitor, single point]",
O=C(c1ccccc1Cl)N1CCCC(c2nc3c(nnn3Cc3ccccc3)c(=O)[nH]2)C1 (configuration not stated),"inconclusive: 16.4 µM [inhibitor, single point]",
Nc1cc2c(cc1[N+](=O)[O-])-c1ccccc1C2=NO,"inconclusive: 11.2 µM [activator, partial curve, poor fit]",
COCCNCCCOc1ccc(Br)cc1Cl,"inconclusive: 20 µM [inhibitor, partial curve, poor fit]",
Cc1cc(C(=O)N/N=C2\CCCC(=O)C2)c2ccccc2n1,"inconclusive: 29.1 µM [inhibitor, single point]",
CC(C)(C)P(=O)(c1ccncc1)N1CCCC1 (configuration not stated),,inactive: 0.423%
Cc1ccc2cc(C(c3nnnn3C3CCCC3)N3CCN(c4ccc(F)cc4)CC3)c(=O)[nH]c2c1 (configuration not stated),"inconclusive: 11.6 µM [inhibitor, partial curve, poor fit]",
COc1ccc(C2Nc3ccccc3C(=O)N2c2ccc(Cl)cc2)cc1Cn1cc([N+](=O)[O-])cn1 (configuration not stated),"inconclusive: 5.8 µM [activator, single point]",
CCc1nc(Nc2ccc3c(c2)OCCO3)c2oc3ccccc3c2n1,,inactive: -24.7%
Cc1ccc(CN2C(=NC(=O)CCC(=O)O)SC3CS(=O)(=O)CC32)cc1 (configuration not stated),,inactive: 0.87%
O=C(Cc1ccccc1Cl)Nc1nc2ccccc2[nH]1,"inconclusive: 14.1 µM [activator, partial curve, poor fit]",
Cc1ccc(C(=O)n2c(-c3ccccc3)cnc2SCC(=O)Nc2ccc(C)cc2C)cc1,"inconclusive: 35.5 µM [inhibitor, single point]",
CC(C)Oc1ccccc1/C=N/NC(=O)c1ccc(F)cc1,"inconclusive: 2.91 µM [activator, single point]",
O=Cc1c(Cl)nc2ccccn2c1=O,"inconclusive: 10 µM [inhibitor, partial curve, poor fit]",
Cc1sc(NC(=O)c2ccc(Cl)s2)c(C(N)=O)c1C,"inconclusive: 0.0046 µM [activator, full curve, poor fit]",

# Arranged by molar mass (high to low): some entries from above.
SMILES,Potency,"activity change, negative = inhibition"
COCCNCCCOc1ccc(Br)cc1Cl,"inconclusive: 20 µM [inhibitor, partial curve, poor fit]",
CC(=O)c1c(C)[nH]c(C(=O)NCCc2cccc(C)c2)c1C,,inactive: -24.7%
O=C(Cc1ccccc1Cl)Nc1nc2ccccc2[nH]1,"inconclusive: 14.1 µM [activator, partial curve, poor fit]",
